Source: the supplement of paper PMC7661543
Differences between knockout arms are mostly noise.

Tested on: SKBR3
Assay: relative cell number vs DMSO control (72 h) (% of DMSO); higher = less growth inhibition (more cells)
Method: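 QMAP-Seq: a pool of 5 breast cancer cell lines (ZR-75-1, SKBR3, HCC-38, MDA-MB-231, BT-20), each carrying 12 doxycycline-inducible Cas9 sgRNA perturbations (11 knockouts plus non-targeting sgNT), was treated with compounds for 72 h at four 10-fold doses (10 nM-10 uM or 1 nM-1 uM range). Barcodes were amplified and sequenced, and cell number was interpolated from 293T spike-in standard curves. The result is expressed as % of the median of DMSO wells. Two biological replicates.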

C=C(c1ccc(C(=O)O)cc1)c1cc2c(cc1C)C(C)(C)CCC2(C)C [Bexarotene]
Settings	relative cell number
sgRNA knockout: sgATF3, 10 nM	109
sgRNA knockout: sgATF3, 100 nM	88.05
sgRNA knockout: sgATF3, 1000 nM	65.6
sgRNA knockout: sgATF3, 10000 nM	87.826
sgRNA knockout: sgATF4, 10 nM	91
sgRNA knockout: sgATF4, 100 nM	87.3
sgRNA knockout: sgATF4, 1000 nM	79.8
sgRNA knockout: sgATF4, 10000 nM	80.9
sgRNA knockout: sgATF6, 10 nM	99.3
sgRNA knockout: sgATF6, 100 nM	74.3
sgRNA knockout: sgATF6, 1000 nM	80.3
sgRNA knockout: sgATF6, 10000 nM	82.9
sgRNA knockout: sgATG7, 10 nM	116
sgRNA knockout: sgATG7, 100 nM	90.8
sgRNA knockout: sgATG7, 1000 nM	75.4
sgRNA knockout: sgATG7, 10000 nM	66.8
sgRNA knockout: sgERN1, 10 nM	94.6
sgRNA knockout: sgERN1, 100 nM	86.2
sgRNA knockout: sgERN1, 1000 nM	99.1
sgRNA knockout: sgERN1, 10000 nM	93.2
sgRNA knockout: sgHSF1, 10 nM	116
sgRNA knockout: sgHSF1, 100 nM	78.5
sgRNA knockout: sgHSF1, 1000 nM	84
sgRNA knockout: sgHSF1, 10000 nM	91
sgRNA knockout: sgHSF2, 10 nM	89.33
sgRNA knockout: sgHSF2, 100 nM	93.3
sgRNA knockout: sgHSF2, 1000 nM	101
sgRNA knockout: sgHSF2, 10000 nM	83.7
sgRNA knockout: sgKEAP1, 10 nM	104
sgRNA knockout: sgKEAP1, 100 nM	78.2
sgRNA knockout: sgKEAP1, 1000 nM	93.8
sgRNA knockout: sgKEAP1, 10000 nM	79.6
sgRNA knockout: sgNFE2L2, 10 nM	103
sgRNA knockout: sgNFE2L2, 100 nM	105
sgRNA knockout: sgNFE2L2, 1000 nM	90.69
sgRNA knockout: sgNFE2L2, 10000 nM	102
sgRNA knockout: sgSLC35F2, 10 nM	119
sgRNA knockout: sgSLC35F2, 100 nM	73.8
sgRNA knockout: sgSLC35F2, 1000 nM	84.2
sgRNA knockout: sgSLC35F2, 10000 nM	98.1
sgRNA knockout: sgXBP1, 10 nM	108
sgRNA knockout: sgXBP1, 100 nM	96.3
sgRNA knockout: sgXBP1, 1000 nM	87.6
sgRNA knockout: sgXBP1, 10000 nM	88.4

CCc1c2c(nc3ccc(O)cc13)-c1cc3c(c(=O)n1C2)COC(=O)[C@]3(O)CC [SN38]
Settings	relative cell number
sgRNA knockout: sgATF3, 1 nM	90.9
sgRNA knockout: sgATF3, 10 nM	54.5
sgRNA knockout: sgATF3, 100 nM	16.5
sgRNA knockout: sgATF3, 1000 nM	15
sgRNA knockout: sgATF4, 1 nM	91.4
sgRNA knockout: sgATF4, 10 nM	58.8
sgRNA knockout: sgATF4, 100 nM	23.5
sgRNA knockout: sgATF4, 1000 nM	17.25
sgRNA knockout: sgATF6, 1 nM	104
sgRNA knockout: sgATF6, 10 nM	51.8
sgRNA knockout: sgATF6, 100 nM	23.5
sgRNA knockout: sgATF6, 1000 nM	20.4
sgRNA knockout: sgATG7, 1 nM	104
sgRNA knockout: sgATG7, 10 nM	55.4
sgRNA knockout: sgATG7, 100 nM	20.7
sgRNA knockout: sgATG7, 1000 nM	15.1
sgRNA knockout: sgERN1, 1 nM	83.5
sgRNA knockout: sgERN1, 10 nM	51
sgRNA knockout: sgERN1, 100 nM	22.9
sgRNA knockout: sgERN1, 1000 nM	19.5
sgRNA knockout: sgHSF1, 1 nM	85.3
sgRNA knockout: sgHSF1, 10 nM	41.3
sgRNA knockout: sgHSF1, 100 nM	24.9
sgRNA knockout: sgHSF1, 1000 nM	21.6
sgRNA knockout: sgHSF2, 1 nM	101
sgRNA knockout: sgHSF2, 10 nM	52.6
sgRNA knockout: sgHSF2, 100 nM	27.4
sgRNA knockout: sgHSF2, 1000 nM	18.5
sgRNA knockout: sgKEAP1, 1 nM	78.8
sgRNA knockout: sgKEAP1, 10 nM	43.1
sgRNA knockout: sgKEAP1, 100 nM	29.81
sgRNA knockout: sgKEAP1, 1000 nM	18.3
sgRNA knockout: sgNFE2L2, 1 nM	93.1
sgRNA knockout: sgNFE2L2, 10 nM	39.5
sgRNA knockout: sgNFE2L2, 100 nM	24
sgRNA knockout: sgNFE2L2, 1000 nM	24.8
sgRNA knockout: sgSLC35F2, 1 nM	79.9
sgRNA knockout: sgSLC35F2, 10 nM	40.6
sgRNA knockout: sgSLC35F2, 100 nM	20.2
sgRNA knockout: sgSLC35F2, 1000 nM	18.8
sgRNA knockout: sgXBP1, 1 nM	109
sgRNA knockout: sgXBP1, 10 nM	41.8
sgRNA knockout: sgXBP1, 100 nM	19.1
sgRNA knockout: sgXBP1, 1000 nM	15.4

CC(C)[C@H](O)C(=O)N[C@@H](C)C(=O)N[C@@H]1C(=O)N(C)CCc2ccccc21 [Semagacestat]
Settings	relative cell number
sgRNA knockout: sgATF3, 10 nM	95.6
sgRNA knockout: sgATF3, 100 nM	113
sgRNA knockout: sgATF3, 1000 nM	75.3
sgRNA knockout: sgATF3, 10000 nM	102
sgRNA knockout: sgATF4, 10 nM	104
sgRNA knockout: sgATF4, 100 nM	104
sgRNA knockout: sgATF4, 1000 nM	104
sgRNA knockout: sgATF4, 10000 nM	77.5
sgRNA knockout: sgATF6, 10 nM	91.2
sgRNA knockout: sgATF6, 100 nM	96.9
sgRNA knockout: sgATF6, 1000 nM	108
sgRNA knockout: sgATF6, 10000 nM	79.1
sgRNA knockout: sgATG7, 10 nM	99.3
sgRNA knockout: sgATG7, 100 nM	88.3
sgRNA knockout: sgATG7, 1000 nM	77
sgRNA knockout: sgATG7, 10000 nM	83.3
sgRNA knockout: sgERN1, 10 nM	87.3
sgRNA knockout: sgERN1, 100 nM	106
sgRNA knockout: sgERN1, 1000 nM	116
sgRNA knockout: sgERN1, 10000 nM	88.4
sgRNA knockout: sgHSF1, 10 nM	107
sgRNA knockout: sgHSF1, 100 nM	109
sgRNA knockout: sgHSF1, 1000 nM	85
sgRNA knockout: sgHSF1, 10000 nM	78.9
sgRNA knockout: sgHSF2, 10 nM	85.6
sgRNA knockout: sgHSF2, 100 nM	89.5
sgRNA knockout: sgHSF2, 1000 nM	91.4
sgRNA knockout: sgHSF2, 10000 nM	73.9
sgRNA knockout: sgKEAP1, 10 nM	84.27
sgRNA knockout: sgKEAP1, 100 nM	120
sgRNA knockout: sgKEAP1, 1000 nM	95.9
sgRNA knockout: sgKEAP1, 10000 nM	95.5
sgRNA knockout: sgNFE2L2, 10 nM	93.6
sgRNA knockout: sgNFE2L2, 100 nM	96.1
sgRNA knockout: sgNFE2L2, 1000 nM	96.7
sgRNA knockout: sgNFE2L2, 10000 nM	77.7
sgRNA knockout: sgSLC35F2, 10 nM	101
sgRNA knockout: sgSLC35F2, 100 nM	88.5
sgRNA knockout: sgSLC35F2, 1000 nM	81.3
sgRNA knockout: sgSLC35F2, 10000 nM	83.79
sgRNA knockout: sgXBP1, 10 nM	127
sgRNA knockout: sgXBP1, 100 nM	96.5
sgRNA knockout: sgXBP1, 1000 nM	90.9
sgRNA knockout: sgXBP1, 10000 nM	91.6
